Data on one substance can be found in PMC10743763.

Chains of the proteins cited; added tags and fusions are not shown.
UniProt P49023: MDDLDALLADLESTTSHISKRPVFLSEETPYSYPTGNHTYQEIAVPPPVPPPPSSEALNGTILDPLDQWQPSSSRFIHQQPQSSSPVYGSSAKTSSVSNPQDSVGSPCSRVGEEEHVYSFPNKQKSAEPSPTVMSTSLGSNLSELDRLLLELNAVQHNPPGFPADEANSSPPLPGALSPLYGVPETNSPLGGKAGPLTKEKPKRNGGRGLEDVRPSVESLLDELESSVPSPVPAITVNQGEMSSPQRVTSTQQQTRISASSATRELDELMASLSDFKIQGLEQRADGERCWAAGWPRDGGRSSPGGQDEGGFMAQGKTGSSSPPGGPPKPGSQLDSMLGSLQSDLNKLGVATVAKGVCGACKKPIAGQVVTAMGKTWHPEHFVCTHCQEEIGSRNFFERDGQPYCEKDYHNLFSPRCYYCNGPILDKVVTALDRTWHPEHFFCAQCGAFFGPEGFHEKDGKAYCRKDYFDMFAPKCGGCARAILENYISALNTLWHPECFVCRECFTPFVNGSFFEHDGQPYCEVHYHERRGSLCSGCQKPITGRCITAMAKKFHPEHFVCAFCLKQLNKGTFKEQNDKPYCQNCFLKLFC

These are yes or no findings as the source states them, for the method shown. In cells and extracts the contact can be indirect. Some binding calls cover weakened binding; strength is not graded here.

The test addresses T1, oral-facial digital syndrome type 1 (OFD1) (human (endogenous in primary melanocytes)) (UniProt O75665).
T1 sequence: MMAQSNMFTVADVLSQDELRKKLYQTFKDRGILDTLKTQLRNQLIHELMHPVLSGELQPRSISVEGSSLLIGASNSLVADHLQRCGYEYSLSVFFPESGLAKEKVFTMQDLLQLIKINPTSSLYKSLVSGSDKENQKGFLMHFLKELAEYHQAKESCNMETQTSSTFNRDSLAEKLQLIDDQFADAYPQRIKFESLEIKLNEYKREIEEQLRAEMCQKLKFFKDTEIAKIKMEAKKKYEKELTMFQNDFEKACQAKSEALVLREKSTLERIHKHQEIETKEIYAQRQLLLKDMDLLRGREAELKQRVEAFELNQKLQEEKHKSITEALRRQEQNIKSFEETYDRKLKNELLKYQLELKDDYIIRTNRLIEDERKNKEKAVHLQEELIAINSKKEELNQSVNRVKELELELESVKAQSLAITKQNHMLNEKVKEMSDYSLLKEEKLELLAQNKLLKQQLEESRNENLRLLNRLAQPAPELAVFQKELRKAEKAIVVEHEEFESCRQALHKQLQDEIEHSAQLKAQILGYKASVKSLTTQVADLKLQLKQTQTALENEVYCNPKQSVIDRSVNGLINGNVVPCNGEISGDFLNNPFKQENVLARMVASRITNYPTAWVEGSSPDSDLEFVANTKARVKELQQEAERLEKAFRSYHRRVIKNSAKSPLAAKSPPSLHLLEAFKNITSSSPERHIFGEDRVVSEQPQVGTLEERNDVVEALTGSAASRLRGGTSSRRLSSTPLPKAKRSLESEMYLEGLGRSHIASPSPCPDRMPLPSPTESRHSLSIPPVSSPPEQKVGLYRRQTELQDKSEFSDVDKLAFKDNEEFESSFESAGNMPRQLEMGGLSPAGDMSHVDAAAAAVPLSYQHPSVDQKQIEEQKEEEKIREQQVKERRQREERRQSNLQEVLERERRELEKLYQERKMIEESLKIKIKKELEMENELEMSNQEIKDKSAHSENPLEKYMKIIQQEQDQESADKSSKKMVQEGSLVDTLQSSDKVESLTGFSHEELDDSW
Briefly: co-IP; anti-OFD1 or antipaxillin antibody on resin (Pierce Direct IP kit), 4 °C, lysates of cultured melanocytes with or without OFD1 knockdown; immunoblot with antipaxillin, anti-FAK or anti-OFD1. Background: A western blot detects proteins with antibodies after separation by electrophoresis.

As for paxillin (from UniProt P49023 1-591), the binding result is on record as “binds”.
